# The supplement of paper PMC10338343
# ± gives the standard deviation. Only a part is listed here, and it is no random draw. Many entries were measured with a wide error.
# Tested on: MILI (PIWIL2) piRISC loaded with piRNA #2 (26 nt)
# Experiment: pre-steady-state target cleavage rate (min^-1); MIWI and MILI are mouse PIWI proteins and EfPiwi is from a freshwater sponge; tags in brackets are library labels; higher = faster piRNA-guided slicing of the target
# Conditions: guide: piRNA #2 5'p-UUAGGUAACCCAGUAGAUCCAGAGGA; auxiliary factor: 500 nM mouse GTSF1
# In short: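 The pre-steady-state cleavage rate was calculated from a burst-and-steady-state fit. Data came from Cleave-'n-Seq, in which […] transcribed, DNA-blocked target RNA library was mixed with 1 nM active affinity-purified piRISC carrying one synthetic guide, with or without 500 nM GTSF1 partner protein, in HEPES–potassium acetate buffer at 33 °C for 0–8 or 0–960 min. Uncleaved targets were sequenced and normalised to depth and to weakly complementary targets, three trials were pooled, and k3 was capped at 0.0001 min^-1.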
# 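Further: 1 nM active piRISC with 0.1 nM target library at 33 °C single turnover.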
row,Sequence,pre-steady-state target cleavage rate
1,CUUAAGGAGACCUAGUUCAGGGUUACCUAA,0.00031 ± 0.019
2,CUUAAGGAGACGUUCUACUGCGUUACCUAA,0.00069 ± 0.0086
3,CUUAAGGAGACCUAGAUGACCGUUACCAAA,0.000494 ± 0.014
4,CUUAAGGAGACCUUGUAGUGGGUUACCUAA,0.000252 ± 0.025
5,CUUAAGGAGACCUUCUGACUGGGUUACCUAA,0.000175 ± 0.03
6,CUUAAGGUGUGGAUCUACUGGGUUAGCUAA,0.00124 ± 0.0083
7,CUUAAGGACUGGAUCUUCUGGGUUACGUAA,0.00361 ± 0.01
8,CUUAAGGAGACGAUCUACCGGGUUACCUAA,0.0014 ± 0.007
9,CUUAAGGAGUGGAUCUUCUGGGAUACCUAA,0.00198 ± 0.0074
10,CUUAAGGAGACCUAGUACUGGGAUACCUAA,0.000231 ± 0.024
11,CUUAUCCUCUGGUCUACUGGGUUACCUAA,0.983 ± 0.34
12,CUUAAGGAGACCAUCCACUGGGUUACCUAA,0.0018 ± 0.006
13,CUUAAGGAGUGGAUCUACUAGGGUUACCUAA,0.00079 ± 0.0081
14,CUUAAGGAGACCAUCUACUGGGGUUACCUAA,0.00112 ± 0.0075
15,CUUAAGGAGACGAUCUACAGGGAUACCUAA,0.00223 ± 0.0053
16,CUUAUGCUCUGGAUCUACUCGGUUACCUAA,0.00216 ± 0.0039
17,CUUAAGGAGACCUUCUACUAGGUUACCUAA,0.000727 ± 0.011
18,CUUAAGGAGUGGAUCUACUCGGUUACCUAA,0.000639 ± 0.024
19,CUUAAGGAGACCAUCUAUUGGGUUACCUAA,0.00124 ± 0.0086
20,CUUAAGGAGACCUACUACUGGGUUAACUAA,0.00035 ± 0.021
21,CUUAAGGAGACCUACUACUGGGAUUACCUAA,0.00119 ± 0.0088
22,CUUAAGGAGAGGAUCAACUGGGUAACCUAA,0.000699 ± 0.014
23,CUUAAGGAGACCUUCUACACGGUUACCUAA,0.000439 ± 0.014
24,CUUAAGGAGAGCUACUACUGGGUUACCUAA,0.00088 ± 0.0053

# An excerpt of these results, bar-delimited:
row | Sequence | pre-steady-state target cleavage rate
1 | CUUAAGGAGACCUAGUUCAGGGUUACCUAA | 0.00031 ± 0.019
4 | CUUAAGGAGACCUUGUAGUGGGUUACCUAA | 0.000252 ± 0.025
5 | CUUAAGGAGACCUUCUGACUGGGUUACCUAA | 0.000175 ± 0.03
9 | CUUAAGGAGUGGAUCUUCUGGGAUACCUAA | 0.00198 ± 0.0074
10 | CUUAAGGAGACCUAGUACUGGGAUACCUAA | 0.000231 ± 0.024
11 | CUUAUCCUCUGGUCUACUGGGUUACCUAA | 0.983 ± 0.34
12 | CUUAAGGAGACCAUCCACUGGGUUACCUAA | 0.0018 ± 0.006
13 | CUUAAGGAGUGGAUCUACUAGGGUUACCUAA | 0.00079 ± 0.0081
14 | CUUAAGGAGACCAUCUACUGGGGUUACCUAA | 0.00112 ± 0.0075
15 | CUUAAGGAGACGAUCUACAGGGAUACCUAA | 0.00223 ± 0.0053
16 | CUUAUGCUCUGGAUCUACUCGGUUACCUAA | 0.00216 ± 0.0039
17 | CUUAAGGAGACCUUCUACUAGGUUACCUAA | 0.000727 ± 0.011
18 | CUUAAGGAGUGGAUCUACUCGGUUACCUAA | 0.000639 ± 0.024
19 | CUUAAGGAGACCAUCUAUUGGGUUACCUAA | 0.00124 ± 0.0086
20 | CUUAAGGAGACCUACUACUGGGUUAACUAA | 0.00035 ± 0.021
21 | CUUAAGGAGACCUACUACUGGGAUUACCUAA | 0.00119 ± 0.0088
22 | CUUAAGGAGAGGAUCAACUGGGUAACCUAA | 0.000699 ± 0.014
23 | CUUAAGGAGACCUUCUACACGGUUACCUAA | 0.000439 ± 0.014
24 | CUUAAGGAGAGCUACUACUGGGUUACCUAA | 0.00088 ± 0.0053

# Following part.

row,Sequence,pre-steady-state target cleavage rate
1,CUUAAGGACUGGAUCUACUGGGUUACGAUA,0.00441 ± 0.0082
2,CUUAUCCUCUGGAUCUACAGGCUUACCUAA,0.00164 ± 0.005
3,CUUAAGGAGAGGAUCUACGUGGGUUACCUAA,0.000125 ± 0.032
4,CUUAUCCUCUGGAUCUACUCGGUUACCUAA,0.00364 ± 0.005
5,CUUAAGGAGAGGAUCUACUGCCUUACCUAA,0.000681 ± 0.0095
6,CUUAAGGAGACCUACAACUGGGUUACCUAA,0.000395 ± 0.012
7,CUUAAGGAGACGAUCUACUGGGUUCCCUAA,0.000892 ± 0.0089
8,CUUAAGGACUGGAACUACUCGGUUACCUAA,0.000776 ± 0.026
9,CUUAUCCUCUGGAUCUACUGCCUUACCUAA,0.000747 ± 0.0085
10,CUUAUCCUCUGGAUCUACUGGGUUUCCUUA,0.413 ± 0.15
11,CUUAAGGAGAGGAUCUACUGGGUUAUCUAA,0.00254 ± 0.0053
12,CUUAAGGAGACGAUCUUGUGGGUUACCUAA,0.00136 ± 0.0063
13,CUUAAGGAGACGAUCUACUGGGUUACCUUA,0.0025 ± 0.0038
14,CUUAAGGAGACCUACUACUGGGUUACCAUA,0.000258 ± 0.025
15,CUUAAGGAGUGUGAUCUACUGGGUUACCUAA,0.00262 ± 0.0058
16,CUUAAGGAGACCUACUACUGGGUUACCUAA [g2:g16:cont:t1A],0.00059 ± 0.0088
17,CUUAAGGACUGGAUCUUCUGGGUUACCAAA,0.000576 ± 0.023
18,CUUAAGGAGACCUAGAUCUAGGGUUACCUAA,0.000429 ± 0.025
19,CUUAAGGAGACCUACUACUGGCUUACCUAA,0.000139 ± 0.032
20,CUUAAGGAGACCUAGAUGUGGGUAACCAAA,0.000505 ± 0.017
21,CUUAACCUCUCGGAUCUACUGGGUUACCUAA,0.0634 ± 0.017
22,CUUAAGGAGUCGAUGUACUGGGUUACCUAA,0.00103 ± 0.018
23,CUUAAGCUCAGGAUCUACUGGGUAACCUAA,0.0259 ± 0.0088
24,CUUAAGGAGACCAUCUACUGGCGUUACCUAA,0.000239 ± 0.017

row,Sequence,pre-steady-state target cleavage rate
1,CUUAAGGAGACCUACUACUGGGAUACCUUA,0.000416 ± 0.022
2,CUUAAGGAGAGUGAUCUACUGGGUUACCUAA,0.00269 ± 0.004
3,CUUAAGCUCUGGAUCUACUGGCUUACCUAA,0.00151 ± 0.0066
4,CUUAAGGAGAGGAUCUACAGGGUUACCAAA,0.00176 ± 0.0077
5,CUUAAGGAGACGAUCUACUGGGUUAUCCUAA,0.00198 ± 0.0059
6,CUUAAGGAGUGGUUCAACUGGGUUACCUAA,0.00146 ± 0.0088
7,CUUAAGGACUGGAUCUACUGCGUUACCUUA,0.00289 ± 0.013
8,CUUAAGGAGACCUAGAUCAUGGGUUACCUAA,0.000369 ± 0.021
9,CUUAACCUCUGGAUCUACUGGGUUACCUAA [g2:g25:cont:t1A],0.101 ± 0.02
10,CUUAAGGAGACCUUCUACUGGCUUACCUUA,0.00049 ± 0.015
11,CUUAAGGAGACCAUCGACUGGGUUACCUAA,0.000493 ± 0.019
12,CUUAAGGAGACGAUCUACUCGGUAACCUAA,0.000112 ± 0.037
13,CUUAAGGACUGGAUCUACUGGGUUACUAA,0.00578 ± 0.0074
14,CUUAACCUCUGGAUCUACUGCGUUACGUAA,0.00362 ± 0.0041
15,CUUAAGCUCUGGAUCAACUGGGUUUCCUAA,0.0481 ± 0.015
16,CUUAAGGAGACCUACUACUGCGUUAGCUAA,0.000151 ± 0.035
17,CUUAAGGAGACCAACUACUGGGUUACCAAA,0.00018 ± 0.04
18,CUUAAGGAGACCAUCUUCUGGGUUACCAAA,0.00101 ± 0.011
19,CUUAAGGAGACCUUCUACUGGGUUACCUAU [g2:g17:cont:t1U],0.00113 ± 0.01
20,CUUAAGGAGUGGAUCAACUGCGUUACCUAA,0.00149 ± 0.0097
21,CUUAAGGAGACGAUCUUCUGGGAUACCUAA,0.00173 ± 0.0035
22,CUUAAGGAGAGGAUCUACAGCGUUACCUAA,0.00131 ± 0.0055
23,CUUAAGGAGACGAUCUACUGGGAAACCUAA,0.000663 ± 0.0076
24,CUUAAGGAGACCAUCUACUCGGUUACGUAA,0.000268 ± 0.039
